Measurements reported in PubChem BioAssay AID1224830 (NIAID, 2016)

- Test: 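Genes whose knock-down alters the TNF-alpha reporter response to LPS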 (primary screen)
- Cell system: human THP-1 monocytic leukaemia cells, TNF dual-luciferase reporter clone, PMA-differentiated to macrophage-like cells
- Reagents: siRNA pool against human genes, 50 nM
- Duration: LPS for 4 h, given about 3 days after siRNA transfection
- Conditions: bacterial LPS (TLR4 ligand), 10 ng/ml
- Measured: 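TNF firefly reporter luminescence divided by renilla, normalised to the plate median, then turned into a robust z-score for each replicate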
- Reading the numbers: TNF reporter robust z-score: higher = stronger TNF reporter response to LPS
- Call rule: 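a well is active when its z-score exceeds 2.8 or falls below -1.5; control wells carry no call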
In all, the deposit lists about 18,000 reagents; shown is an unselected part. About 2,900 of all reagents (16%) count as active. 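Calls are made per well; low scores hint the gene aids the LPS response, high scores that it dampens it.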 Entries without a mark were called inactive. Repeated entries: four replicate wells of each siRNA pool.

target gene	TNF reporter robust z-score
NAA20 (GeneID 51126)	-0.78
NAA20 (GeneID 51126)	-0.46
NAA20 (GeneID 51126)	-1.47
NAA20 (GeneID 51126)	1.29
CCNK (GeneID 8812)	2.21
CCNK (GeneID 8812)	2.46
CCNK (GeneID 8812)	1.43
CCNK (GeneID 8812)	2.09
MCL1 (GeneID 4170)	-1.28
MCL1 (GeneID 4170)	0.9
MCL1 (GeneID 4170)	-0.84
MCL1 (GeneID 4170)	-0.03
GPHN (GeneID 10243)	-0.96
GPHN (GeneID 10243)	0.49
GPHN (GeneID 10243)	2.28
GPHN (GeneID 10243)	1.76
RAB19 (GeneID 401409)	-0.96
RAB19 (GeneID 401409)	-0.64
RAB19 (GeneID 401409)	-0.41
RAB19 (GeneID 401409)	0.15
GNG12 (GeneID 55970)	0.94
GNG12 (GeneID 55970)	0.73
GNG12 (GeneID 55970)	-0.22
GNG12 (GeneID 55970)	0.21
MAPK4 (GeneID 5596)	1.81
MAPK4 (GeneID 5596)	-0.54
MAPK4 (GeneID 5596)	-1.05
MAPK4 (GeneID 5596)	0.03
MFAP3 (GeneID 4238)	-0.76
MFAP3 (GeneID 4238)	-0.51
MFAP3 (GeneID 4238)	-0.13
MFAP3 (GeneID 4238)	0.29
LIG1 (GeneID 3978)	-1.22
LIG1 (GeneID 3978)	-0.67
LIG1 (GeneID 3978)	-1.53 (active)
LIG1 (GeneID 3978)	-1.01
NTAQ1 (GeneID 55093)	-0.12
NTAQ1 (GeneID 55093)	-0.6
NTAQ1 (GeneID 55093)	0.2
NTAQ1 (GeneID 55093)	0.94
REM1 (GeneID 28954)	-1.34
REM1 (GeneID 28954)	-1.32
REM1 (GeneID 28954)	0.02
REM1 (GeneID 28954)	-0.42
COPZ1 (GeneID 22818)	-0.05
COPZ1 (GeneID 22818)	0.15
COPZ1 (GeneID 22818)	-0.63
COPZ1 (GeneID 22818)	0.65
TTC39B (GeneID 158219)	-0.17
TTC39B (GeneID 158219)	1.36
TTC39B (GeneID 158219)	-0.15
TTC39B (GeneID 158219)	1.37
KIR2DL5A (GeneID 57292)	-1.75 (active)
KIR2DL5A (GeneID 57292)	-1.47
KIR2DL5A (GeneID 57292)	-1.86 (active)
KIR2DL5A (GeneID 57292)	-1.56 (active)
KDM4C (GeneID 23081)	1.41
KDM4C (GeneID 23081)	1.27
KDM4C (GeneID 23081)	1.71
KDM4C (GeneID 23081)	0.8
TP73 (GeneID 7161)	-0.59
TP73 (GeneID 7161)	0.84
TP73 (GeneID 7161)	0.5
TP73 (GeneID 7161)	0.87
FCHO2 (GeneID 115548)	-1.08
FCHO2 (GeneID 115548)	0.89
FCHO2 (GeneID 115548)	0.85
FCHO2 (GeneID 115548)	-0.21
KLHDC1 (GeneID 122773)	0.02
KLHDC1 (GeneID 122773)	-0.12
KLHDC1 (GeneID 122773)	-0.26
KLHDC1 (GeneID 122773)	0.46
EIF1AY (GeneID 9086)	2.03
EIF1AY (GeneID 9086)	-2.53 (active)
EIF1AY (GeneID 9086)	1.24
EIF1AY (GeneID 9086)	-0.41
FAAP20 (GeneID 199990)	0.18
FAAP20 (GeneID 199990)	-0.18
FAAP20 (GeneID 199990)	-0.02
FAAP20 (GeneID 199990)	-0.01
C11orf71 (GeneID 54494)	-1.29
C11orf71 (GeneID 54494)	-1.02
C11orf71 (GeneID 54494)	0
C11orf71 (GeneID 54494)	-0.29
SCAF11 (GeneID 9169)	0.31
SCAF11 (GeneID 9169)	0.9
SCAF11 (GeneID 9169)	-1.08
SCAF11 (GeneID 9169)	0.4
TACC1 (GeneID 6867)	1.18
TACC1 (GeneID 6867)	1.11
TACC1 (GeneID 6867)	4.85 (active)
TACC1 (GeneID 6867)	-0.44
CXorf58 (GeneID 254158)	-0.78
CXorf58 (GeneID 254158)	-0.76
CXorf58 (GeneID 254158)	-1.33
CXorf58 (GeneID 254158)	-1.04
NPTN (GeneID 27020)	0.58
NPTN (GeneID 27020)	0.39
NPTN (GeneID 27020)	0.16
NPTN (GeneID 27020)	1.01
FTSJ1 (GeneID 24140)	0.09
FTSJ1 (GeneID 24140)	-0.42
FTSJ1 (GeneID 24140)	-0.85
FTSJ1 (GeneID 24140)	-0.63
CUL4A (GeneID 8451)	-0.61
CUL4A (GeneID 8451)	-0.08
CUL4A (GeneID 8451)	-0.76
CUL4A (GeneID 8451)	0.31
WDR74 (GeneID 54663)	1.39
WDR74 (GeneID 54663)	1.8
WDR74 (GeneID 54663)	-0.1
WDR74 (GeneID 54663)	3.27 (active)
